From PMC8207686
Read-outs that look alike come from different tables or passages of the source. These are yes or no findings as the source states them, for the method shown. For some assays here: Binding seen in cells or lysates may run through a third protein. Some binding calls cover weakened binding; strength is not graded here. Tags and fused reporters may be left off the sequences shown.

Protein sequences, listed by entry. Tags and fused reporters are not part of them.
UniProt Q9LN63: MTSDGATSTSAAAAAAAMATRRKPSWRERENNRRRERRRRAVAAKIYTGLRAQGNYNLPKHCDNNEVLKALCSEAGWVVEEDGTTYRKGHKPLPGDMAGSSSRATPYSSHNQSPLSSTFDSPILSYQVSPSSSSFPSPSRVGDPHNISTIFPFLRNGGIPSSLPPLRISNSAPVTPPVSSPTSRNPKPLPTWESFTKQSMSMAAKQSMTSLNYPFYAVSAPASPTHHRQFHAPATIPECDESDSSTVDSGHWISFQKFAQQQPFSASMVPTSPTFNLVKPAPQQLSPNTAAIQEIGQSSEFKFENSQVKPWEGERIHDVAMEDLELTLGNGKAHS

T1: BRASSINOSTEROIDS AT VASCULAR AND ORGANIZING CENTER (BRAVO), fluorescent fusion for FRET-FLIM (Arabidopsis thaliana) (UniProt Q6R053)
T1 sequence: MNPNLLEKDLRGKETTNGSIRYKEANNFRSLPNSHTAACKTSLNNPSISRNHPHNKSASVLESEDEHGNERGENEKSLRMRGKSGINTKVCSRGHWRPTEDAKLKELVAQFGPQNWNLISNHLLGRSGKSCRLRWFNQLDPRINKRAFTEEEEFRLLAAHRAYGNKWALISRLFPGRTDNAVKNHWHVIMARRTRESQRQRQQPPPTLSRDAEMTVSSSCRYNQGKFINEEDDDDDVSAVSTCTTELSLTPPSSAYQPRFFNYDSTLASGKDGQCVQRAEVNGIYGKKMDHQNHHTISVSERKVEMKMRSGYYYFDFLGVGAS

T2: WUSCHEL RELATED HOMEOBOX 5 (WOX5), fluorescent fusion for FRET-FLIM (Arabidopsis thaliana) (UniProt Q8H1D2)
T2 sequence: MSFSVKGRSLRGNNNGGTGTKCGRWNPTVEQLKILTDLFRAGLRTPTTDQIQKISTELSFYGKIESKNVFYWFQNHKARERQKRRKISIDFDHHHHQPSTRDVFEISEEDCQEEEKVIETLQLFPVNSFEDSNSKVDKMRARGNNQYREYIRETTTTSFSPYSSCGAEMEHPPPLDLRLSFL

T3: BRAVO, yeast two-hybrid fusion (Arabidopsis thaliana) (UniProt Q6R053)
T3 sequence: T1 sequence

B1: WUSCHEL RELATED HOMEOBOX 5 (WOX5), fluorescent fusion for FRET-FLIM (protein, UniProt Q8H1D2 1-182)
chain: T2 sequence
B2: TOPLESS (TPL), yeast two-hybrid fusion (protein, UniProt Q94AI7 1-1131)
chain: MSSLSRELVFLILQFLDEEKFKETVHKLEQESGFFFNMKYFEDEVHNGNWDEVEKYLSGFTKVDDNRYSMKIFFEIRKQKYLEALDKHDRPKAVDILVKDLKVFSTFNEELFKEITQLLTLENFRENEQLSKYGDTKSARAIMLVELKKLIEANPLFRDKLQFPTLRNSRLRTLINQSLNWQHQLCKNPRPNPDIKTLFVDHSCGPPNGARAPSPVNNPLLGGIPKAGGFPPLGAHGPFQPTASPVPTPLAGWMSSPSSVPHPAVSAGAIALGGPSIPAALKHPRTPPTNASLDYPSADSEHVSKRTRPMGISDEVNLGVNMLPMSFSGQAHGHSPAFKAPDDLPKTVARTLSQGSSPMSMDFHPIKQTLLLVGTNVGDIGLWEVGSRERLVQKTFKVWDLSKCSMPLQAALVKEPVVSVNRVIWSPDGSLFGVAYSRHIVQLYSYHGGEDMRQHLEIDAHVGGVNDISFSTPNKQLCVITCGDDKTIKVWDAATGVKRHTFEGHEAPVYSVCPHYKENIQFIFSTALDGKIKAWLYDNMGSRVDYDAPGRWCTTMAYSADGTRLFSCGTSKDGESFIVEWNESEGAVKRTYQGFHKRSLGVVQFDTTKNRYLAAGDDFSIKFWDMDAVQLLTAIDGDGGLQASPRIRFNKEGSLLAVSGNENVIKIMANSDGLRLLHTFENISSESSKPAINSIAAAAAAAATSAGHADRSANVVSIQGMNGDSRNMVDVKPVITEESNDKSKIWKLTEVSEPSQCRSLRLPENLRVAKISRLIFTNSGNAILALASNAIHLLWKWQRNERNATGKATASLPPQQWQPASGILMTNDVAETNPEEAVPCFALSKNDSYVMSASGGKISLFNMMTFKTMATFMPPPPAATFLAFHPQDNNIIAIGMDDSTIQIYNVRVDEVKSKLKGHSKRITGLAFSNVLNVLVSSGADAQLCVWNTDGWEKQRSKVLPLPQGRPNSAPSDTRVQFHQDQAHFLVVHETQLAIYETTKLECMKQWAVRESLAPITHATFSCDSQLVYASFMDATVCVFSSANLRLRCRVNPSAYLPASLSNSNVHPLVIAAHPQEPNMFAVGLSDGGVHIFEPLESEGKWGVAPPAENGSASGAPTAPSVGASASDQPQR
B3: BRASSINOSTEROIDS AT VASCULAR AND ORGANIZING CENTER (BRAVO), fluorescent fusion for FRET-FLIM (protein, UniProt Q6R053 1-323)
chain: T1 sequence
B4: TOPLESS (TPL), fluorescent fusion for FRET-FLIM (protein, UniProt Q94AI7 1-1131)
chain: B2 chain
B5: WOX5, yeast two-hybrid fusion (protein, UniProt Q8H1D2 1-182)
chain: T2 sequence

Legend:
[1] = biological target: T1, BRASSINOSTEROIDS AT VASCULAR AND ORGANIZING CENTER (BRAVO), fluorescent fusion for FRET-FLIM (Arabidopsis thaliana); experiment: FRET or BRET; FRET-FLIM: donor fluorescence lifetime measured in nuclei of transiently expressing Nicotiana benthamiana leaf epidermal cells; fusion proteins tagged with mVenus or mCherry, induced with ß-estradiol; double-exponential fit of the intensity-weighted average lifetime
[2] = biological target: T2, WUSCHEL RELATED HOMEOBOX 5 (WOX5), fluorescent fusion for FRET-FLIM (Arabidopsis thaliana); experiment: as above
[3] = biological target: T1, BRASSINOSTEROIDS AT VASCULAR AND ORGANIZING CENTER (BRAVO), fluorescent fusion for FRET-FLIM (Arabidopsis thaliana); experiment: as above; remark: listed apart in the source
[4] = biological target: T3, BRAVO, yeast two-hybrid fusion (Arabidopsis thaliana); experiment: two-hybrid; GAL4-based yeast two-hybrid (Clontech), strain AH109; interaction assessed by growth on SD-LWH plates after 4 days at 30°C
[5] = biological target: T2, WUSCHEL RELATED HOMEOBOX 5 (WOX5), fluorescent fusion for FRET-FLIM (Arabidopsis thaliana); experiment: FRET or BRET; FRET-FLIM: donor fluorescence lifetime measured in nuclei of transiently expressing Nicotiana benthamiana leaf epidermal cells; fusion proteins tagged with mVenus or mCherry, induced with ß-estradiol; double-exponential fit of the intensity-weighted average lifetime; remark: listed apart in the source

Molecule | binding [3] | binding [4] | binding [5] | further results
BRI1‐EMS‐SUPPRESSOR 1 (BES1), fluorescent fusion for FRET-FLIM (from UniProt Q9LN63 1-335) |  |  |  | binding [1]: binds; binding [2]: binds
B1 | binds |  |  | 
B2 |  | binds |  | 
B3 |  |  | binds | 
B4 | binds |  | binds | 
B5 |  | binds |  | 
